Some entries share one result that the patent states for a list of compounds.
Tests used:
Format in all cases: biochemical
Trx-1/TrxR = target: T1, Trx-1/TrxR (Homo sapiens, UniProt P10599+Q16881); assay: Trx-1/TrxR-dependent insulin reducing assay
T1 construct: Thioredoxin reductase was purified from human placenta as previously described; made in house
T1 sequence (P10599 1-105): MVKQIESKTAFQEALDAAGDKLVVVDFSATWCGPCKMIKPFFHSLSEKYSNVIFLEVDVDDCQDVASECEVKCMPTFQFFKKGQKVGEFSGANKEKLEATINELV
T1 sequence (Q16881 1-499 isoform Q16881-5): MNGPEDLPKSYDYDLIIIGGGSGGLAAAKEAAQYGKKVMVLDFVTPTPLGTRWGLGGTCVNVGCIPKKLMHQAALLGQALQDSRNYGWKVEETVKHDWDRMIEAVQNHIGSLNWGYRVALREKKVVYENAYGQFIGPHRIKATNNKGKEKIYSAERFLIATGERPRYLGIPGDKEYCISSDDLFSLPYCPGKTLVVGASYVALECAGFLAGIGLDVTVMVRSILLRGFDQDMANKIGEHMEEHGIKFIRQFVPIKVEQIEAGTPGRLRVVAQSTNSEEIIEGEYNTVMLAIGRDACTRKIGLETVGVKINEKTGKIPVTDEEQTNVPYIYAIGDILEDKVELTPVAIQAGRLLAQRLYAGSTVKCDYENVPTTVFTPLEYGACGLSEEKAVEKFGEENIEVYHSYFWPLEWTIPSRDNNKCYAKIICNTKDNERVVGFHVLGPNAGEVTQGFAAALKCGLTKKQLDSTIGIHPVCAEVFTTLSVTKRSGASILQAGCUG
Method: Thioredoxin reductase was purified from human placenta as previously described (Oblong, J.E.; Gasdaska, P.Y.; Sherrill, K.; Powis,G. Biochemistry 1993, 32, 7271) and recombinant human Trx-1 was prepared as previously described (Gasdaska, P.Y.; Oblong, J.E.; Cotgreave, I.A.; Powis,G. Biochem.Biophys.Acta 1994 ,1218 ,292). TrxR and Trx-1/TrxR activities were measured spectrophotometrically using previously published microtiter plate colorimetric assays, based on the increase in absorbance at 405 nm which occurs as dithionitrobenzoic acid (DTNB) is reduced by the enzyme-mediated transfer of reducing equivalents from NADPH (Gasdaska et al., Biochem.Biophys.Acta 1994 ,1218,292). Trx-1/TrxR-dependent insulin reducing activity was measured in an incubation with a final volume of 60 μL containing 100 mM HEPES buffer, pH 7.2,5 mM EDTA (HE buffer),1 mM NADPH, […],0.8 μM Trx-1 and 2.5 mg/mL bovine insulin. […] The reaction was stopped by the addition of 100 μL of 6 M guanidine-HC1, 50 mM Tris, pH 8.0, and 10 mM DTNB, and the absorbance measured to 405 nm. TrxR activity was measured in a final incubation volume of 60 μL containing HE buffer, 10 mM DTNB, 1.0 μM TrxR and 1 mM NADPH. […] To start the reaction NADPH and DTNB were added as a 20 μL aliquot in HE buffer and the plate was moved to the plate reader which had been preheated to 37 ° C. […]

The chains behind the UniProt entries cited, without tags or fusion partners.
UniProt P51452, whole entry, species assumed: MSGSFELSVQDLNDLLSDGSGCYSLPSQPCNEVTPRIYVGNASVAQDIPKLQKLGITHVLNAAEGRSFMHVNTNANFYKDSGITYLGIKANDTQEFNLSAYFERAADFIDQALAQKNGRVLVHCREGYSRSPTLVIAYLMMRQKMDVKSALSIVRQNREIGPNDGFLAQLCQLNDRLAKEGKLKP

VHR = VHR (Homo sapiens, UniProt P51452); assay: In vitro inhibition of VHR; details: 100 MM, data not shown
recombinant Cdc25 = assay: In vitro inhibition of recombinant Cdc25; details: 100 MM, data not shown
PTPIB = target: T2, PTPIB (Homo sapiens, UniProt P18031); assay: In vitro inhibition of PTPIB; details: 100 MM, data not shown
T2 sequence (P18031 1-435): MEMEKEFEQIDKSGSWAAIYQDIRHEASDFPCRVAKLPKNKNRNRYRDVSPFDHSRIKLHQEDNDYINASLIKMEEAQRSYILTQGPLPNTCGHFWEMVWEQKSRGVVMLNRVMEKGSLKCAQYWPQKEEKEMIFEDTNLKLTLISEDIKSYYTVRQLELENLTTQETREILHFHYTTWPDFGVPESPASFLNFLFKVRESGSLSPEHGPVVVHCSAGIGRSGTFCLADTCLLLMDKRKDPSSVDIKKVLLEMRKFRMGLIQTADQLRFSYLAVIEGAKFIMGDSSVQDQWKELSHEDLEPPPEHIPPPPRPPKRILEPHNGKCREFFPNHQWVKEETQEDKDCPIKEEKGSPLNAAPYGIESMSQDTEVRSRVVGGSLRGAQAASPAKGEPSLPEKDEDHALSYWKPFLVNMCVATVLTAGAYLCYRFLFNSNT

| SMILES | fold less active than palmarumycin CP1 on Trx-1/TrxR (Trx-1/TrxR) [fold] | inhibition of VHR activity (VHR) [%] | inhibition of recombinant Cdc25 activity (recombinant Cdc25) [%] | inhibition of PTPIB activity (PTPIB) [%] |
| --- | --- | --- | --- | --- |
| O=C1C=CC2(Oc3cccc4cccc(c34)O2)c2cccc(OCc3ccoc3)c21 [SR-10, 8-(furan-3-ylmethoxy)-1-oxo-1,4-dihydronaphthalene-4-spiro-2′-naphto [1′,8′-de][1′,3′] dioxin] | > 50 |  |  |  |
| C=CCOc1cccc2c1C(=O)C=CC21Oc2cccc3cccc(c23)O1 [SR-14, 8-allyloxy-1-oxo-1,4-dihydronaphthalene-4-spiro-2′-naphto [1″,8″-de][1′,3′] dioxin] | > 50 |  |  |  |
| CC/C=C/CCOc1cccc2c1C(=O)C=CC21Oc2cccc3cccc(c23)O1 [SR-4, (E)-8-(hex-3-enyloxy)-1-oxo-1,4-dihydronaphthalene-4-spiro-2′-naphto [1″,8″-de][1′,3′] dioxin] |  | ≤ 16 | ≤ 16 | ≤ 16 |
| O=C1C=CC2(Oc3cccc4cccc(c34)O2)c2cccc(OCc3ccco3)c21 [SR-7, 8-(furan-2-ylmethoxy)-1-oxo-1,4-dihydronaphthalene-4-spiro-2′-naphto [1″,8″-de][1′,3′] dioxin] |  | ≤ 16 | ≤ 16 | ≤ 16 |
